Experimental data as given in patent US7528132B2, “Kinase inhibitors” (Schering Corporation, priority 2005, dated 2009).
The structures given here were assigned with low confidence; some may be wrong.

Protein sequences, listed by entry. Tags and fused reporters are not part of them.
UniProt P31749, whole entry: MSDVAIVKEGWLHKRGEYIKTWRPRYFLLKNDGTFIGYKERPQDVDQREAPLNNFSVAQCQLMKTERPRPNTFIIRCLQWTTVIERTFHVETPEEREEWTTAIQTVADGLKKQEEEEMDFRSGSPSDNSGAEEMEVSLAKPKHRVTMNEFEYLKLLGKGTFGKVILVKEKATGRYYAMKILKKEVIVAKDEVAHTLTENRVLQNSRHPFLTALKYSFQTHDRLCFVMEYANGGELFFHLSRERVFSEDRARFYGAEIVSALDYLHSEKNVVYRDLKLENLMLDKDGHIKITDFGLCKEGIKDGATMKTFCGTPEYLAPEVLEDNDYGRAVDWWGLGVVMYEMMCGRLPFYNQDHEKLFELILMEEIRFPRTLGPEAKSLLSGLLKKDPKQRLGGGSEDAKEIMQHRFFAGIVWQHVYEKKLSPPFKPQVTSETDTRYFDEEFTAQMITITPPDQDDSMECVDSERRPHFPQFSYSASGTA

Biological target: Akt1 (Homo sapiens, UniProt P31749)
Test: Akt1 kinase assay (33P phosphorylation of biotinylated peptide, Flash plates)
Assay type: biochemical
Settings: read-out: IC50 rating (AKT1 inhibition)
From the text: The assay described below measures the phosphorylation of a biotinylated peptide by active recombinant Akt1 and other kinase isoforms. The biotinylated peptide contains a consensus sequence derived from Akt substrate Gsk3 (Glycogen synthase kinase 3). The ^33P-labeled peptide substrate was captured by streptavidin-coated Flash plates.
Active recombinant Akt1 was expressed in Sf9 insect cells and purified as described by Kumar et al., Biochim. Biophys. Acta. Jun. 15, 2001, 1526(3), 257-268. Biotinylated peptide of the sequence Bio-ahx-RPRAASF was purchased from Syn Pep (Dublin, Calif., USA).
Cloning and Expression of Human Akt1 Sf9 Cells
Human Akt1 cDNA was amplified from a marathon-ready human lung cDNA library (Clonetech) using nested oligo primers as described below. […]
Viral stocks were used to infect large scale Sf9 cells at a multiplicity of infection (MOI) of 2.5. […] Fractions were analyzed by electrophoresis on 10% denaturing polyacrylamide gels and fractions containing 85% pure protein band at 60 KDa were pooled and dialyzed against buffer C (20 mM Tris-HCl pH 7.5, 0.5 mM EDTA,-2 mM DTT, 145 mM NaCl, 0.1 mM sodium vanadate, 5 mM sodium fluoride, 10 mM, β-glycerophosphate and 20% glycerol). […] Protein concentrations were determined using BCA protein assay reagent A (Catalog #23228). […]

IC50: 100 to 1000 nM
Structure (SMILES): CCC[C@@H]1CN(c2nc(-c3ccc4[nH]nc(C)c4c3)nnc2N)CCN1
